Assay results: article PMC12548414
The whole screen tested about 1,600 compounds, of which about 20 (1%) showed an effect of 50% or more. The list shows a part of the results.

System: T1, E. coli pLC1021 (luc-trpAt trans-translation reporter)
T1 construct: pLC1021 luc-trpAt reporter strain
Parameters: species or system Escherichia coli pLC1021; luc-trpAt non-stop luciferase reporter; luminescence rises when trans-translation is inhibited; normalized to KKL-35 and DMSO
Details: reporter signal, KKL-35 = 100%; rise means trans-translation inhibition; 2 h, 20 µM
Outline: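 Cells carrying the non-stop luc-trpAt reporter were exposed to 20 µM compound for 2 h at room temperature, then Bright-Glo was added and luminescence read at 560 nm after 10 min. Signals were normalised per plate to DMSO and 20 µM KKL-35 wells. Hits: activity one SD above the median; ≥2 biological repeats averaged.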

| Structure (SMILES) | % activation |
| --- | --- |
| O=C1C(NS(=O)(=O)c2cccs2)=C(N2CCN(c3cccc(C(F)(F)F)c3)CC2)C(=O)c2ccccc21 [KKL-0989] | 2% |
| Cc1n[nH]c(C)c1S(=O)(=O)NCc1nc(NCCCc2ccccc2)c2ccccc2n1 [KKL-1839] | 1% |
| CCN(CC)c1cccc(Oc2nc([N+](=O)[O-])nn2C)c1 [KKL-0601] | 0% |
| COc1cccc(-c2cc(CC3(O)CCN(Cc4[nH]c5ccc(C)cc5c4C)CC3)on2)c1 [KKL-0315] | 0% |
| CCc1nnc(NC(=O)c2cccc(C(=O)Nc3nnc(CC)s3)n2)s1 [KKL-1023] | 6% |
| CCC(CO)N1C(C)=CC(=Cc2sc3ccccc3[n+]2Cc2ccccc2)C=C1C (stereo not drawn) [KKL-0847] | 0% |
| Cc1ccc(-c2[nH]ncc2CNCc2ccc(OC(F)(F)F)cc2)cc1C [KKL-0661] | 9% |
| CSc1ncc(CN2CCC(O)(c3ccc(C(F)(F)F)cc3)CC2)cn1 [KKL-0927] | 0% |
| Cc1cccc(N2CCN(C3=NC(=O)C(=C4CCCCC4)S3)CC2)c1 [KKL-0914] | 0% |
| Cn1c2c(c(=O)n(C)c1=O)C(C(F)(F)F)(C(F)(F)F)NC(c1ccc(Cl)cc1)=N2 [KKL-0608] | 10% |
| NC1CCc2nc(-c3cccnc3)nc(Nc3cccc(C(F)(F)F)c3)c2C1 (stereo not drawn) [KKL-0530] | 124% |
| Cc1nnc(NCc2cccc(Cl)c2)c2ccccc12 [KKL-1684] | 0% |
| Oc1nc(-c2ccccn2)nc2ccccc12 [KKL-0878] | 0% |
| CCCCOc1ccc(S(=O)(=O)Nc2ccc(I)cc2)cc1 [KKL-0910] | 10% |
| OC(CNCc1ccco1)Cn1c2ccc(Br)cc2c2cc(Br)ccc21 (stereo not drawn) [KKL-1106] | 0% |
| COc1ccc(C=c2sc(=CC(=O)C(C)(C)C)[nH]c2=O)cc1O [KKL-0950] | 0% |
| Cc1cc(OCCCCCn2ccnc2)cc(C)c1Cl [KKL-1249] | 21% |
| CCC(CC)c1nnc(NC(=O)c2ccc3ccccc3n2)s1 [KKL-0811] | 0% |
| CCOC(=O)c1ccc(NC(S)=Nc2ccc(Oc3ccccc3)cc2)cc1 [KKL-1317] | 0% |
| O=C(NCc1cc(Cl)cc(Cl)c1)c1c(C(F)(F)F)nc2ccccn12 [KKL-1807] | 0% |
| C[n+]1c2n(c3ccccc31)N=C(c1cc(C(C)(C)C)c(O)c(C(C)(C)C)c1)CS2 [KKL-1636] | 0% |

| Structure (SMILES) | % activation |
| --- | --- |
| O=S(=O)(NCc1ccccc1)c1ccc(-c2c(OC3CCNCC3)ccc3cnccc23)s1 [KKL-1866] | 33% |
| COc1ccc(NCc2cc3c(C)nn(-c4ccccc4)c3nc2O)c(OC)c1 [KKL-1213] | 0% |
| NC1CCc2nc(-c3ccncc3)nc(Nc3ccc(Cl)cc3)c2C1 (stereo not drawn) [KKL-0326] | 797% |
| CC1CCCc2sc(NC(=S)NC(=O)c3ccccc3)c(C#N)c21 (stereo not drawn) [KKL-0857] | 0% |
| N#Cc1nc(-c2cccs2)oc1NCCc1ccccc1 [KKL-1016] | 3% |
| OC(CN1CCN(c2ccccn2)CC1)Cn1c2ccc(Cl)cc2c2cc(Cl)ccc21 (stereo not drawn) [KKL-1649] | 0% |
| O=C(NCCO)c1c(O)c2ncc(Cc3ccc(F)cc3C(F)(F)F)cc2[nH]c1=O [KKL-1865] | 4% |
| Cc1ccc(Cl)cc1N1CCN(CC(O)COc2ccc(C(=O)c3ccccc3)cc2)CC1 (stereo not drawn) [KKL-0406] | 0% |
| Cc1ccc2nc(C(F)(F)F)c(C(=O)NCc3ccc4c(c3)OCO4)n2c1 [KKL-1771] | 2% |
| Cc1cc(NS(=O)(=O)c2ccc(NC(=O)c3ccc(C(C)(C)C)cc3)cc2)no1 [KKL-1380] | 0% |
| O=C(Nc1ccc(C(F)(F)F)cc1)Nc1cccc(Cl)c1 [KKL-1575] | 2% |
| CCC(C)c1ccc(OCC(=O)Nc2ccc(OC)c([N+](=O)[O-])c2)cc1 (stereo not drawn) [KKL-1538] | 4% |
| COc1cccc(-c2ccccc2NC(=O)C2CCN(Cc3cc(C)ccc3C)CC2)c1 [KKL-1138] | 0% |
| CSCCC(=O)N1CCCC(C(=O)Nc2cccc(-c3cccc(C)c3)c2)C1 (stereo not drawn) [KKL-0499] | 0% |
| O=C(Nc1cccc(Cl)c1)Nc1ccccc1OC(F)(F)C(F)F [KKL-0431] | 21% |
| COC(=O)[C@@H]1Cc2c([nH]c3ccccc23)[C@H]2C[C@H](NCc3cccnc3)C[C@@H](c3ccc(F)cc3)N21 [KKL-0302] | 0% |
| CSc1nc2ccc(NC(=O)C3CC(=O)N(Cc4ccccc4)C3)cc2s1 (stereo not drawn) [KKL-0922] | 0% |
| O=C(NCc1cccs1)c1cc2n(n1)C(C(F)(F)F)CC(c1ccc3c(c1)OCO3)N2 (stereo not drawn) [KKL-0966] | 22% |
| CC(C)(C)NC(=O)COC(=O)c1snc(C(=O)NC2CCCCC2)c1N [KKL-1657] | 1% |
| Cc1ccc(CNC(=O)c2ccc([N+](=O)[O-])o2)cc1 [KKL-1641] | 0% |
| COC(=O)COc1ccc2cc(-c3ccc(OC)c(OC)c3)c(=O)oc2c1 [KKL-0565] | 3% |

| Structure (SMILES) | % activation |
| --- | --- |
| COc1cc(CN(CCCn2ccnc2)Cc2ccc(C)s2)cc2c1OCO2 [KKL-0341] | 9% |
| CCOC(=O)C1CCN(Cc2nc(-c3ccc(Cl)cc3)no2)CC1 [KKL-0666] | 6% |
| c1ccc(CCN2CCC3(CC2)Nc2ccccc2-n2cccc23)cc1 [KKL-1258] | 0% |
| CC(C)(C)c1cc(Cl)ccc1OCCCCn1ccnc1 [KKL-1305] | 5% |
| COC(=O)[C@@H](NC(=O)c1cc(COc2cncc(Cl)c2)on1)c1ccccc1 [KKL-0505] | 12% |
| Cc1ccc(C(=O)NCCC23CC4CC(CC(C4)C2)C3)cc1 [KKL-0858] | 0% |
| OC1(Cc2cc(-c3ccccc3)no2)CCN(Cc2ccc(OC3CCCC3)cc2)CC1 [KKL-0632] | 0% |
| COC(=O)c1ccc(CN2CCC(C(=O)Nc3cccc(-c4ccco4)c3)CC2)cc1 [KKL-1156] | 0% |
| COC(=O)c1ccc(C(=O)NC2CCCc3c2cnn3-c2cc(F)cc(F)c2)nc1 (stereo not drawn) [KKL-1174] | 2% |
| CCOc1cc(/C=C2\SC(=N)N(c3nccs3)C2=O)ccc1OCCN1CCOCC1 [KKL-0454] | 0% |
| CCC(Sc1nc2ccccc2o1)C(=O)Nc1nnc(C)s1 (stereo not drawn) [KKL-1356] | 2% |
| COc1ccc2cc(C(=O)C3CCCN(Cc4cnc(SC)nc4)C3)ccc2c1 (stereo not drawn) [KKL-0663] | 2% |
| Cc1cccc(OCc2nnc(SCC(=O)NCCc3ccccc3)o2)c1 [KKL-0293] | 0% |
| CC(C)COC(=O)c1ccc2c(c1O)C(=O)c1ccccc1C2=O [KKL-1667] | 0% |
| Cc1cc(CN2CCC(O)(c3ccccc3)C2)ccc1N1CCCC1 (stereo not drawn) [KKL-0330] | 0% |
| O=C(Nc1ccccc1)C1COc2ccccc2O1 (stereo not drawn) [KKL-0471] | 6% |
| O=C(OCc1nnc(-c2ccccc2)o1)c1cc(-c2cccs2)nc2ccccc12 [KKL-1045] | 9% |
| O=C(NCC1COc2ccccc2O1)c1ccc(NC(=O)C2COc3ccccc3O2)cc1 (stereo not drawn) [KKL-1431] | 0% |
| CCCCNC(=O)Nc1nnc(-c2ccc(Cl)cc2)o1 [KKL-0804] | 1% |
| CN(C)c1ccc(NC(=O)c2ccncc2)cc1 [KKL-1365] | 0% |
| CCOC(=O)CSc1nc(N)c(C#N)c(CC(C)C)c1C#N [KKL-1629] | 0% |

| Structure (SMILES) | % activation |
| --- | --- |
| CCCOc1ccc(C(=O)NC(=S)Nc2ccc(C(=O)O)cc2)cc1 [KKL-1324] | 0% |
| CCN(CC)C(=S)NC(=O)c1ccc(F)cc1 [KKL-1252] | 9% |
| Fc1ccccc1CN(CCCn1ccnc1)CC1=Cc2ccccc2OC1 [KKL-0518] | 4% |
| Fc1ccc2nc(Nc3nc(-c4ccccn4)cs3)sc2c1 [KKL-1679] | 2% |
| Fc1ccccc1-c1noc(N2CCN(Cc3ccc4c(c3)OCO4)CC2)n1 [KKL-1687] | 0% |
| CC(C(=O)Oc1cccc2cccnc12)N1C(=O)C2C3C=CC(C4CC34)C2C1=O (stereo not drawn) [KKL-1477] | 5% |
| CCCCCCCn1c(=O)c(C(=O)Nc2cnccn2)c(O)c2ccccc21 [KKL-1014] | 0% |
| CC1CC1C(=O)N1CCC(c2nc(Nc3cccc(F)c3)cc(-c3cccnc3)n2)CC1 (stereo not drawn) [KKL-0702] | 6% |
| c1ccc(-c2nc(NCC3CCCO3)c3ccccc3n2)nc1 (stereo not drawn) [KKL-0898] | 0% |
| CSc1nccc(N2CCCC(CCC(=O)NCc3ccc(C)o3)C2)n1 (stereo not drawn) [KKL-0630] | 0% |
| CCC(=O)Oc1ccc(C(=O)Nc2cc3oc4ccccc4c3cc2OC)cc1 [KKL-1423] | 0% |
| CCOC(=O)c1c(N=C(S)NC2CCN(Cc3ccccc3)CC2)sc(C)c1-c1ccccc1 [KKL-1549] | 0% |
| O=C(Nc1ccc2c(c1)CN(C(=O)/C=C/c1cccs1)CC2)c1ccncc1 [KKL-0616] | 0% |
| CC(C)(C)c1ccc(C(=O)Nc2ccc(S(=O)(=O)Nc3nccs3)cc2)cc1Br [KKL-1241] | 2% |
| CCN(c1ccccc1)c1ccc([N+](=O)[O-])c2nonc12 [KKL-0412] | 0% |
| O=C(COc1ccc(Cl)cc1)Nc1ccc(N2CCN(C(=O)c3ccco3)CC2)c(Cl)c1 [KKL-0863] | 0% |
| COc1ccc2[nH]cc(CCN=C(S)Nc3ccc(Nc4ccccc4)cc3)c2c1 [KKL-0603] | 2% |
| CCc1c(C)nc2cc(-c3cccs3)nn2c1NCc1ccccc1OC [KKL-0531] | 0% |
| COc1ccc(C2c3[nH]c4ccccc4c3CCN2Cc2cc3ccccc3nc2O)cc1C (stereo not drawn) [KKL-0644] | 0% |
| CCOC(=O)c1cnc(-n2nc(C)cc2C)nc1Nc1ccc(OC)cc1 [KKL-0879] | 0% |
| O=C(CSc1nnc(SCc2cccc3ccccc23)s1)Nc1ccccc1F [KKL-1454] | 7% |

Five compounds picked at random from the list so far:

| Structure (SMILES) | % activation |
| --- | --- |
| CCc1c(C)nc2cc(-c3cccs3)nn2c1NCc1ccccc1OC [KKL-0531] | 0% |
| CCc1nnc(NC(=O)c2cccc(C(=O)Nc3nnc(CC)s3)n2)s1 [KKL-1023] | 6% |
| C[n+]1c2n(c3ccccc31)N=C(c1cc(C(C)(C)C)c(O)c(C(C)(C)C)c1)CS2 [KKL-1636] | 0% |
| CC(C)(C)c1ccc(C(=O)Nc2ccc(S(=O)(=O)Nc3nccs3)cc2)cc1Br [KKL-1241] | 2% |
| CC1CC1C(=O)N1CCC(c2nc(Nc3cccc(F)c3)cc(-c3cccnc3)n2)CC1 (stereo not drawn) [KKL-0702] | 6% |
